Measurements reported in PubChem BioAssay AID1487 (National Center for Advancing Translational Sciences (NCATS), 2009).
Several values for one entry are separate records, joined by “and”; a condition that tells them apart may be missing. Identical values can stand only once. The list shows a part of the results. These are further read-outs of the screen, such as a control signal, another cell line or another target. No call is given for them. The list favours compounds with an active or inconclusive main result. The note in brackets gives the kind of curve behind each potency; many fits are weak.

Assay: qHTS Assay for Modulators of Lamin A Splicing
Conditions: HeLa LMNA splicing GFP/RFP minigene ratio, 48 h
In short: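 S3 HeLa stable clones carrying a lamin A-EGFP splicing minigene plus DsRed2 were seeded at 600 cells/well in Opti-MEM with 2% FBS, pin-dosed and incubated 48 h at 37°C. Acumen cytometry (488 nm) gave the GFP/RFP total-intensity ratio.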

[1] = measured here: GFP splicing reporter channel
[2] = measured here: RFP viability control channel

Structure (SMILES)	AC50 [1]	AC50 [2]
Fc1ccccc1N1CCN(C(c2ccccn2)c2nnnn2C2CCCCC2)CC1 (configuration not stated)	12.6 µM [rising, single point]	12.6 µM [rising, single point]
Cc1c(NC(=O)Cc2ccc(Cl)cc2)cccc1-c1nc2cccnc2s1		35.5 µM [rising, single point]
CC(C)N1CCN(Cc2cccn2-c2cccnc2)CC1CCO (configuration not stated)	15.8 µM [falling, partial curve, poor fit]	15.8 µM [falling, partial curve, poor fit]
Oc1cccc(/C=N/NC(=S)Nc2cccnc2)c1O	0.251 µM [rising, full curve]	17.8 µM [rising, partial curve]
O=C(COc1ccccc1)Nc1nnc(-c2ccco2)o1		0.0447 µM [falling, full curve, poor fit]
Cn1cc(CN(CCO)Cc2cccs2)c(-c2ccccc2F)n1	0.0501 µM [rising, full curve, poor fit]	
COc1cccc(CN(C(=O)Cc2c[nH]c3ccccc23)C(C(=O)NC2CCCCC2)c2ccc(C)o2)c1 (configuration not stated)		12.6 µM [rising, partial curve]
Cc1cc(C)nc(SCC(=O)n2c3c(c4ccccc42)CCCC3)n1	3.16 µM [rising, single point]	
O=C(CSc1nc(Nc2ccccc2)c2ccccc2n1)c1ccc(Cl)cc1	35.5 µM [falling, single point]	25.1 µM [falling, partial curve]
Cc1ccc(Cl)c(Nc2ccccc2C(=O)O)c1Cl	35.5 µM [falling, partial curve, poor fit]	22.4 µM [falling, partial curve] and 22.4 µM [rising, partial curve]
COc1cccc(NC(=O)c2ccc(-c3ccc([N+](=O)[O-])cc3)o2)c1		0.501 µM [falling, full curve, poor fit]
COc1cc(OC)cc(C(=O)NNC(=O)c2ccccn2)c1		17.8 µM [rising, partial curve]
CC(c1ccccc1)C1CC(=O)N(Cc2ccccc2)C1=O (configuration not stated)	5.01 µM [rising, single point]	
COc1ccc(NC(=O)c2nn(C34CC5CC(CC(C5)C3)C4)cc2[N+](=O)[O-])cc1		35.5 µM [rising, single point]
COc1ccc(/C=c2\s/c(=C/C(=O)c3ccc(C)cc3)[nH]c2=O)cc1OC		11.2 µM [rising, partial curve]
COc1ccc(CNC(=S)Nc2cc(OC)ccc2OC)cc1	11.2 µM [rising, single point]	
COCCn1c(-c2ccc(Br)cc2)csc1=Nc1cccnc1		6.31 µM [rising, partial curve]
CCCP(=O)(CC(=O)N(CC)CC)c1ccccc1 (configuration not stated)		5.62 µM [rising, single point]

Structure (SMILES)	AC50 [1]	AC50 [2]
CCN(CC)CCCNC(=O)c1ccc2c(c1)sc1nc(-c3ccc(C)cc3)cn12	35.5 µM [falling, single point]	
Cc1c(NC(=O)/C(C#N)=C/c2ccc(-c3ccccc3Cl)o2)c(=O)n(-c2ccccc2)n1C		11.2 µM [rising, partial curve, poor fit]
CC(=O)Nc1ccc(S(=O)(=O)Nc2cccc(-c3cn4c(n3)SCC4)c2)cc1	0.501 µM [rising, partial curve]	1.26 µM [rising, single point]
CCOc1cccc2sc(NC(=O)c3ccc(S(=O)(=O)N4CCCCC4C)cc3)nc12 (configuration not stated)		3.55 µM [falling, full curve, poor fit]
O=C(NCCN1CCOCC1)c1cnn2c(-c3ccccc3)cc(-c3ccccc3)nc12	10 µM [falling, partial curve]	
NC(C(=O)O)C(O)c1ccc(O)c(O)c1 (configuration not stated)	0.141 µM [falling, full curve, poor fit]	0.0794 µM [falling, full curve, poor fit]
Cc1cnc2ncc3sccc3c2c1	35.5 µM [rising, single point]	
CCOC(=O)c1c(C)[nH]c(C)c1S(=O)(=O)N1CCN(c2cc(Cl)ccc2C)CC1	20 µM [falling, partial curve, poor fit]	14.1 µM [falling, partial curve]
COc1ccc(NC(=O)C(c2cc3c(cc2[N+](=O)[O-])OCO3)N(C)Cc2ccccc2)cc1 (configuration not stated)		14.1 µM [rising, partial curve]
CCc1cccc(NC(=O)c2ccc3c(c2)N(Cc2cccc(Cl)c2)C(=O)c2ccccc2S3=O)c1 (configuration not stated)	3.55 µM [falling, single point]	
Cc1[nH]c(=O)c(C(=O)/C=C/c2ccccc2F)c2c1CCCC2	6.31 µM [falling, full curve]	10 µM [falling, partial curve]
Cc1ccc(-c2cc(C(=O)NCc3ccc4c(c3)OCO4)[nH]n2)c(O)c1C	35.5 µM [rising, single point]	35.5 µM [rising, single point]
COc1cccc(NC(=S)NCCC(c2ccccc2)c2ccccc2)c1	35.5 µM [falling, single point]	12.6 µM [falling, partial curve]
Cc1ccccc1CN1CCCN(CC(=O)Nc2ccc(F)cc2)S1(=O)=O		0.01 µM [falling, full curve, poor fit]
COC(=O)c1c(C)nc2c(c(SC)nn2-c2ccccc2)c1N	2.82 µM [rising, single point]	
CC(=O)Oc1c(S(=O)(=O)c2ccccc2)c(C)nn1C(C)(C)C		35.5 µM [rising, single point]
CCCCSc1[nH]c(=O)c(C(=O)OCC)cc1C#N	35.5 µM [falling, single point]	
c1cc2c(cc1C1=Nn3c(nnc3C3CCCCC3)SC1)OCO2		22.4 µM [rising, single point]
